Measurements from PMC4311446.
No constants are given. Whether binding was seen depends on the method and setting. In cells and extracts the contact can be indirect. Some binding calls cover weakened binding; strength is not graded here.

Sequences of proteins named here, by UniProt entry; tags and fusion partners are left off.
UniProt O15379: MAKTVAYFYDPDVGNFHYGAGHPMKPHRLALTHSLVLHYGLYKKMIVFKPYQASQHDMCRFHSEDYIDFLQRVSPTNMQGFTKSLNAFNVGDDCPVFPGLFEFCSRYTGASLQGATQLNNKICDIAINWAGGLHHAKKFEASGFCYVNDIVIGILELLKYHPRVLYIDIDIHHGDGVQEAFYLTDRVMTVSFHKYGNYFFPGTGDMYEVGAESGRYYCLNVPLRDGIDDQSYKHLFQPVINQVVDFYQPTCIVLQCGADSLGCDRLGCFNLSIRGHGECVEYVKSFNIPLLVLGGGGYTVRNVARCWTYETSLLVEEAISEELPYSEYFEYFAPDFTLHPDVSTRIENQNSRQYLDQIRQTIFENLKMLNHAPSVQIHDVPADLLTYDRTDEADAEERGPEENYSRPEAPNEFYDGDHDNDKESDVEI
UniProt Q13526: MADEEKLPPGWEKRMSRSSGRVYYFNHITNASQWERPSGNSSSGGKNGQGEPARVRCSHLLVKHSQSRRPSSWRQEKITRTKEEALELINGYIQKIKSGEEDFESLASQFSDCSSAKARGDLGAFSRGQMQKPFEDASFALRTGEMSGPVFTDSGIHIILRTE

Target: Histone deacetylase 3 (HDAC3) (human (endogenous in PLC/PRF/5)) (UniProt O15379)
Test: co-IP; endogenous proteins in cell lysates; lysates precleared with protein A/G Plus-agarose; primary antibody coupled to Dynabeads Protein G, incubated with lysate overnight at 4°C; washed three times with PBS; Western blot

binding: binds
Substance: Peptidyl-prolyl cis/trans isomerase 1 (Pin1) (from UniProt Q13526 1-163)
